Most values lie at the floor of the assay. Slopes are relative: functional sequences can read slightly below zero.

The data set deals with Saccharomyces cerevisiae PS128 hsf1 delta, HSF1(1-493) fusion. Kind of data set: growth estimate (transactivation domain function in HSF1 fusion, heat-shock survival) (a.u. (slope of normalised read count over time)); higher = stronger growth at 37°C, i.e. more transactivation activity. Particulars: library: random library.
Consider TRILGKCVKCHRG, for which the growth estimate was -0.243.

In the case of ILCLMKACHAPSL, the growth estimate was less than -0.25.

For RQGRHGRGHLPDSCPGHARL, the growth estimate was less than -0.25.

In the case of WGLKSQASSNAQRFC, the growth estimate was less than -0.25.

For the substance LFCARMVGPPQTVS, the growth estimate is less than -0.25.

For GSYRTMAKNHAPGY, the growth estimate is less than -0.25.

As for QKSQANLKCRAYLLAAPISV, the growth estimate was less than -0.25.

For RFLWNIYSNGPLRVTLSVTG, the growth estimate is less than -0.25.

With REPGDTKARQRLAGIFAPTR, the growth estimate is less than -0.25.

Take HRRQVWFVSPEC: the growth estimate is less than -0.25.

With VVISKG, the growth estimate was less than -0.25.

With LWC, the growth estimate was -0.216.

For the substance GIGVV, the growth estimate is less than -0.25.

In the case of RSLRRGIPAS, the growth estimate was less than -0.25.

For RIRFVCVVTV, the growth estimate is less than -0.25.

As to YKVGLLRRQKV, the growth estimate is less than -0.25.

For the substance LDVLTLKMTTT, the growth estimate was less than -0.25.

Regarding LLYGKMDRSKKPKADARISG, the growth estimate is less than -0.25.

For MGLDAAWGKTQLHISNEFGV, the growth estimate was less than -0.25.

Consider PARFVVDTLH, for which the growth estimate was less than -0.25.

With LRPLSLSFNEGPGLNQ, the growth estimate was less than -0.25.

Regarding ILPVILASYTITYP, the growth estimate was less than -0.25.

As for RVSYGGSLKWKLSVC, the growth estimate is less than -0.25.

Regarding DQKNTSRAGPWNDHAPRDER, the growth estimate was less than -0.25.

On to NKARGQPPPW, for which the growth estimate is less than -0.25.

Regarding PIGNV, the growth estimate was -0.247.

In the case of RDPRRRL, the growth estimate is less than -0.25.

For CIH, the growth estimate was less than -0.25.

For KLNSRHKVYQSSESGRVQLL, the growth estimate is less than -0.25.

As to NPSLKSHRRSWNMGFVVQRG, the growth estimate was less than -0.25.

As to SLFEQFPCIKGNTRQKISWQ, the growth estimate was less than -0.25.

As for YLCVGYQSFP, the growth estimate is less than -0.25.

Regarding RGQTRYLPCRYLLTHPGKVY, the growth estimate was less than -0.25.

As for DGMANVVPAVNLAS, the growth estimate was less than -0.25.

Turning to PGDCVCLLKSIALPAG, the growth estimate was less than -0.25.

As to KWSFGICNVKSR, the growth estimate is less than -0.25.

In the case of RYRDLTREYGAGKQ, the growth estimate is less than -0.25.

Take RVSIFIGPAGRGAIFANRQA: the growth estimate was less than -0.25.

With TGRSPSA, the growth estimate was less than -0.25.

In the case of GGSGVVSPIELCPNAMGLCS, the growth estimate is less than -0.25.

With RPGKQNRGLELTYGLVS, the growth estimate was less than -0.25.

As to SGHIRYVP, the growth estimate was less than -0.25.

RSSEGANRIQMVHPGL: the growth estimate is -0.246.

Turning to LGNM, the growth estimate was less than -0.25.

With GQFWG, the growth estimate is less than -0.25.

VPPC: the growth estimate was less than -0.25.

Turning to ITAKKESQNSTLTAGNSGIL, the growth estimate was less than -0.25.

Turning to FTPVSEGKRRATGNLYQFAG, the growth estimate is less than -0.25.

Turning to ASRREKFKNLLRRGSASFCG, the growth estimate is less than -0.25.

For the substance YRCYYTLAILHGVTSTNPST, the growth estimate was less than -0.25.

For the substance HSTE, the growth estimate was less than -0.25.

Turning to PLGPKFQLKQLP, the growth estimate is less than -0.25.

Consider VRILAPNFRVALSWRHQYFA, for which the growth estimate is less than -0.25.

As to RTKLRISGLQNPNRSRCLIP, the growth estimate was -0.246.

Turning to GSSEHPPLH, the growth estimate is less than -0.25.

PMRSEFSAP: the growth estimate is less than -0.25.

Consider RVALRPQLTPPVAGRN, for which the growth estimate is less than -0.25.

In the case of RKERT, the growth estimate is -0.231.

Turning to VVP, the growth estimate was less than -0.25.

With GSCVGLYGTPVTSG, the growth estimate is less than -0.25.

As to SEPPSHAPCHFVLINRACAS, the growth estimate is less than -0.25.

RKMGGPVASMKGERG: the growth estimate is less than -0.25.

Turning to HNRFPSTEKVPPLRVDVPPW, the growth estimate was less than -0.25.

With ITSSLFRRRDT, the growth estimate is less than -0.25.

Take PGKLLATGNRTQALIDPGRA: the growth estimate is less than -0.25.

LYHILLSWFSIIAWGGLHRG: the growth estimate is 0.0721.

On to LCESTTRFSNWTS, for which the growth estimate is less than -0.25.

Take CGEAGRGSCGPGDTIGFRNS: the growth estimate is less than -0.25.

With TPSSRTSQNCRLDRKNIYPP, the growth estimate was less than -0.25.

Turning to PVSRSTLS, the growth estimate was less than -0.25.

As for FAS, the growth estimate was less than -0.25.

Turning to AVVVTLRLLWLPWYIESMCA, the growth estimate is less than -0.25.

For DGQAWQAAAVSSRT, the growth estimate was less than -0.25.

Regarding RRYRHLATSYSCIREGRTPR, the growth estimate was -0.246.

As to QSQSS, the growth estimate is less than -0.25.

With RSFSFRFF, the growth estimate was less than -0.25.

Consider RLFFWIQEISIPRY, for which the growth estimate is less than -0.25.

Consider FAKRQTFRIQVARAGGLGAC, for which the growth estimate is less than -0.25.

In the case of SGLNRDWIGQI, the growth estimate was less than -0.25.

On to LGSTSGHKRQGSDASTEFMR, for which the growth estimate is less than -0.25.

For the substance KGWEAEGVVCPFYRARF, the growth estimate is less than -0.25.

For PAEVTLGSVALGLGYTS, the growth estimate was less than -0.25.

Consider QDPPHPEYF, for which the growth estimate is less than -0.25.

On to RVSWDCSVCATSLYVRVLVP, for which the growth estimate was less than -0.25.

Regarding SKPGMSICGGAMFYSDE, the growth estimate is less than -0.25.

Consider ALGHSVRHSTYLQWQTKAES, for which the growth estimate is less than -0.25.

In the case of RDCVLRAGVTSIYQVITRRH, the growth estimate is less than -0.25.

In the case of FVNLNRRVPSSPCWPWFSGL, the growth estimate is less than -0.25.

Turning to NCPNANPN, the growth estimate was less than -0.25.

For the substance STPSRQKSSYGFGHGDKDKD, the growth estimate is -0.246.

As for CLQERVLVLPMGADNHPPYP, the growth estimate was less than -0.25.

Take GYSCSAIRS: the growth estimate was less than -0.25.

Consider AESREPRCDCPTTRSRYGA, for which the growth estimate was less than -0.25.

For the substance MLQERRT, the growth estimate is -0.246.

On to GHIWFQACCGRLLRANDIPQ, for which the growth estimate is less than -0.25.

GGIDSCPSIP: the growth estimate is less than -0.25.

For LNKVKQEGVK, the growth estimate was less than -0.25.

As for CHVDGEGHRTCCIANRKHVR, the growth estimate is less than -0.25.

Regarding TMPSCWRNCRCSGLR, the growth estimate was less than -0.25.

Consider SGGSRWKAVEGELKLIPMRR, for which the growth estimate is less than -0.25.

Regarding QVLPVRTPAT, the growth estimate was less than -0.25.

For EEENDIPLSPCVTDTSRSLG, the growth estimate is less than -0.25.

For RSHMDFLRCTSPQLREMLCP, the growth estimate is 0.183.

As to GLRRA, the growth estimate was less than -0.25.

For SRQARSLVTVGSHRCSLYVN, the growth estimate was less than -0.25.

Take PKCTLTSVVNKLN: the growth estimate was less than -0.25.

As to VRLIPGGIQAGTGRAG, the growth estimate was less than -0.25.

On to SHHLYKVNARDTWLAISTKW, for which the growth estimate was less than -0.25.

With ISDGITR, the growth estimate is less than -0.25.

In the case of RLLSLRPPRAGWMRCRIPTA, the growth estimate is less than -0.25.

On to FGWTV, for which the growth estimate was less than -0.25.

As for WGRNEEKLRGVTGNKCRFGS, the growth estimate was less than -0.25.

On to RSRYKRWSALIQPKVASSHI, for which the growth estimate was less than -0.25.

For the substance GSQKNCDLQSAAFIQRACDC, the growth estimate was less than -0.25.

As for GAPRV, the growth estimate was less than -0.25.

As for RKTGS, the growth estimate was less than -0.25.

Source of the values: the supplement of paper PMC5949888.
